Data: PubChem BioAssay AID330 (DTP/NCI, 2004)
The list is a part of this screen's results and no random one: it is rich in T/C values a quarter to a half above the control, in often repeated tests (any T/C) and in doses without a T/C. Other doses and runs of a compound stand elsewhere. T/C gives the treated animals as a percentage of the vehicle group. Some entries give survivors of the animals treated and no T/C: the source files T/C as zero there, which appears to mark a toxic dose or a test without result, not a measured value. Some doses without a T/C left all or most animals alive at the check, yet need not have been tolerated: the source hardly ever lists a survival T/C far under the control, and the zero likely stands for such cases as well. Counts of survivors are from the toxicity check (mostly the fifth day) where no day follows; animals may have died later. Schedules are NCI's codes, taken here to give the interval after Q, in days (D) or hours (H), and the number of doses after X. Some doses were run more than once; the results are listed from low to high. Signs of the kind (2×) give the number of equal values in this list. Where survival is the endpoint, this PubChem deposit counts one and a half times the control or more as active, and values a quarter to a half above the control carry no call in these data; other NCI protocols may use other cut-offs. Some T/C values are followed by the survivors on the day toxicity was checked, most often the fifth; without a count, all were alive then.

Test system: P388 leukemia ip, CD2F1 mice, survival T/C
Experiment: NCI In Vivo Anticancer Drug Screen. Data for tumor model P388 Leukemia (intraperitoneal) in CD2F1 (CDF1) mice
Conditions: T/C endpoint: median survival time, higher T/C = longer survival
[1] = dose: 50.0 mg/kg/injection, schedule: Q01DX009 (ip), vehicle: Klucel (hydroxypropylcellulose) (HPC)
[2] = dose: 100.0 mg/kg/injection, schedule: Q01DX009 (ip), vehicle: Klucel (hydroxypropylcellulose) (HPC)
[3] = dose: 200.0 mg/kg/injection, schedule: Q01DX005 (ip), vehicle: Klucel (hydroxypropylcellulose) (HPC)
[4] = dose: 200.0 mg/kg/injection, schedule: Q01DX009 (ip), vehicle: Klucel (hydroxypropylcellulose) (HPC)
[5] = dose: 400.0 mg/kg/injection, schedule: Q01DX005 (ip), vehicle: Klucel (hydroxypropylcellulose) (HPC)
[6] = dose: 400.0 mg/kg/injection, schedule: Q01DX009 (ip), vehicle: Klucel (hydroxypropylcellulose) (HPC)

CN(Cc1cnc2nc(N)nc(N)c2n1)c1c(Cl)cc(C(=O)NC(CCC(=O)O)C(=O)O)cc1Cl (centres undefined)
T/C (dose: 50.0 mg/kg/injection, schedule: Q01DX001 (ip), vehicle: Klucel (hydroxypropylcellulose) (HPC), evaluated on day 30): 97, 101, 105 [2 of 3 alive], 112, 115, 116, 121 (2×), 122, 123, 124, 125, 125 [5 of 6 alive], 126, 127, 128 (2×), 130, 133 (2×), 134 (2×), 135 (2×), 138, 147, 150 (2×), 155 % of control | T/C (dose: 50.0 mg/kg/injection, schedule: Q01DX001 (ip), vehicle: Klucel (hydroxypropylcellulose) (HPC), evaluated on day 35): 112 % of control [5 of 6 alive] | survivor count (dose: 50.0 mg/kg/injection, schedule: Q01DX001 (ip), vehicle: Klucel (hydroxypropylcellulose) (HPC)): 3 of 3 and 6 of 6 | T/C (dose: 50.0 mg/kg/injection, schedule: Q01DX005 (ip), vehicle: Klucel (hydroxypropylcellulose) (HPC), evaluated on day 30): 132, 144 [5 of 6 alive], 153, 159, 162, 163, 164, 168, 170, 171, 172 (2×), 173 (2×), 175, 176 (2×), 178, 182 (2×), 187, 191, 192 (2×), 194, 196, 197, 200 (2×), 205 [5 of 6 alive], 208, 211, 216 % of control | T/C (dose: 50.0 mg/kg/injection, schedule: Q01DX005 (ip), vehicle: Klucel (hydroxypropylcellulose) (HPC), evaluated on day 35): 159 % of control | survivor count (dose: 50.0 mg/kg/injection, schedule: Q01DX005 (ip), vehicle: Klucel (hydroxypropylcellulose) (HPC)): 3 of 3 | T/C (dose: 50.0 mg/kg/injection, schedule: Q01DX005 (iv), vehicle: suspension in saline): 137 % of control | T/C [1]: 113, 125, 163, 169 (2×), 170, 177, 182, 190, 194, 199, 205, 206, 210, 211, 212, 214, 218, 222, 226 [5 of 6 alive], 230 (2×), 235, 236 (2×), 239, 245 (2×), 247, 249, 257, 273, 286 % of control | survivor count [1]: 3 of 3 and 6 of 6 | T/C (dose: 50.0 mg/kg/injection, schedule: Q04DX002 (ip), vehicle: Klucel (hydroxypropylcellulose) (HPC)): 109 [5 of 6 alive], 112, 116 (2×), 121, 126, 127, 128 (2×), 133, 134 (2×), 136 (2×), 138, 141, 142, 143, 144, 145 (2×), 147 (4×), 148, 150, 153 (3×), 155 (2×), 156, 161 % of control (2×) | T/C (dose: 50.0 mg/kg/injection, schedule: Q04DX003 (ip), vehicle: Klucel (hydroxypropylcellulose) (HPC), evaluated on day 30): 123, 125, 128, 130 [5 of 6 alive], 131, 133, 134, 135 (2×), 137 [5 of 6 alive], 140 (2×), 141, 142 (2×), 144, 146, 149, 152 (2×), 153, 154, 155, 156, 159, 160, 163 (2×), 165, 172, 175, 177 (2×), 178, 180 % of control | T/C (dose: 50.0 mg/kg/injection, schedule: Q04DX003 (ip), vehicle: Klucel (hydroxypropylcellulose) (HPC), evaluated on day 35): 159 % of control | T/C (dose: 100.0 mg/kg/injection, schedule: Q01DX001 (ip), vehicle: Klucel (hydroxypropylcellulose) (HPC), evaluated on day 30): 100, 108, 109, 110, 112, 122, 125 (2×), 127, 128, 129, 131, 132, 133 (3×), 135, 137, 139, 140, 141, 147, 150, 155 (3×), 156, 157 % of control (2×) | T/C (dose: 100.0 mg/kg/injection, schedule: Q01DX001 (ip), vehicle: Klucel (hydroxypropylcellulose) (HPC), evaluated on day 35): 129 % of control | survivor count (dose: 100.0 mg/kg/injection, schedule: Q01DX001 (ip), vehicle: Klucel (hydroxypropylcellulose) (HPC)): 3 of 3 and 6 of 6 | T/C (dose: 100.0 mg/kg/injection, schedule: Q01DX005 (ip), vehicle: Klucel (hydroxypropylcellulose) (HPC), evaluated on day 30): 92, 142, 152, 153, 158, 171 (2×), 173 [2 of 3 alive], 174 (2×), 176, 181 (2×), 182, 186, 192 (2×), 195 (2×), 199, 200, 203, 210, 210 [5 of 6 alive], 213, 214, 221, 235, 238 % of control | T/C (dose: 100.0 mg/kg/injection, schedule: Q01DX005 (ip), vehicle: Klucel (hydroxypropylcellulose) (HPC), evaluated on day 35): 193 % of control | survivor count (dose: 100.0 mg/kg/injection, schedule: Q01DX005 (ip), vehicle: Klucel (hydroxypropylcellulose) (HPC)): 3 of 3 and 6 of 6 | T/C [2]: 86, 86 [5 of 6 alive], 88 (2×), 92, 94, 96 [5 of 6 alive], 97, 98, 100 (2×), 101, 104, 106, 110, 113, 115, 171, 182, 185, 192, 201, 205, 208, 210, 223, 250, 261, 265 [2 of 3 alive], 285 % of control | survivor count [2]: 5 of 6, 3 of 3, 6 of 6 | T/C (dose: 100.0 mg/kg/injection, schedule: Q04DX002 (ip), vehicle: Klucel (hydroxypropylcellulose) (HPC)): 121, 125 [5 of 6 alive], 128, 133, 134, 135 (2×), 137, 139, 141, 144, 146, 147 (3×), 148, 150 (2×), 151, 154 (4×), 155, 156, 157, 159, 162, 168, 171, 175 (2×), 176, 178, 179 % of control | T/C (dose: 100.0 mg/kg/injection, schedule: Q04DX003 (ip), vehicle: Klucel (hydroxypropylcellulose) (HPC), evaluated on day 30): 132, 136, 137, 144 (2×), 145, 146 (2×), 149, 150 (2×), 151, 153, 157, 159, 160, 162, 163, 168, 169 (2×), 170, 171, 173, 176, 178, 180 (2×), 188 (3×), 189, 190, 194, 203 % of control | T/C (dose: 100.0 mg/kg/injection, schedule: Q04DX003 (ip), vehicle: Klucel (hydroxypropylcellulose) (HPC), evaluated on day 35): 192 % of control | T/C (dose: 200.0 mg/kg/injection, schedule: Q01DX001 (ip), vehicle: Klucel (hydroxypropylcellulose) (HPC), evaluated on day 30): 92, 112, 114, 115, 118, 126 (3×), 129, 131, 131 [2 of 3 alive], 133, 138, 145, 147, 148, 150 (4×), 157, 160, 163, 167, 169 (2×), 175, 184, 194 % of control | T/C (dose: 200.0 mg/kg/injection, schedule: Q01DX001 (ip), vehicle: Klucel (hydroxypropylcellulose) (HPC), evaluated on day 35): 131 % of control [5 of 6 alive] | survivor count (dose: 200.0 mg/kg/injection, schedule: Q01DX001 (ip), vehicle: Klucel (hydroxypropylcellulose) (HPC)): 3 of 3 and 6 of 6 | T/C [3]: 86 (2×), 92, 100, 165, 182, 194, 199, 201, 212, 220 [2 of 3 alive], 221 [5 of 6 alive], 222, 228, 240, 242 % of control | survivor count [3]: 2 of 3, 5 of 6 (2×), 3 of 3, 6 of 6 | survivor count (dose: 200.0 mg/kg/injection, schedule: Q01DX005 (iv), vehicle: suspension in saline): 3 of 6 | T/C [4]: 87, 93, 96, 98, 105, 109, 114, 179 [5 of 6 alive], 192, 216 % of control | survivor count [4]: 1 of 3, 3 of 6, 2 of 3, 4 of 6, 5 of 6 (2×), 3 of 3, 6 of 6 | T/C (dose: 200.0 mg/kg/injection, schedule: Q04DX002 (ip), vehicle: Klucel (hydroxypropylcellulose) (HPC)): 127, 138, 139 (2×), 147, 153, 156, 157, 158, 163 (2×), 166, 167, 169 (2×), 171, 172 (2×), 175, 178, 179, 180, 184, 191, 192, 196, 202, 205 (2×), 211, 218, 222 (2×), 235, 237 % of control | T/C (dose: 200.0 mg/kg/injection, schedule: Q04DX003 (ip), vehicle: Klucel (hydroxypropylcellulose) (HPC), evaluated on day 30): 133 (2×), 153 (2×), 154 (2×), 155, 160, 161 (2×), 169, 172, 180, 181 (2×), 188, 189 (2×), 189 [5 of 6 alive], 191, 200, 203, 209, 210, 212, 212 [5 of 6 alive], 215, 217, 229, 241, 242, 243, 251, 257, 261 % of control | T/C (dose: 200.0 mg/kg/injection, schedule: Q04DX003 (ip), vehicle: Klucel (hydroxypropylcellulose) (HPC), evaluated on day 35): 223 % of control | T/C (dose: 400.0 mg/kg/injection, schedule: Q01DX001 (ip), vehicle: Klucel (hydroxypropylcellulose) (HPC), evaluated on day 30): 110, 110 [2 of 3 alive], 120, 123, 131 (2×), 140 (2×), 150 [5 of 6 alive], 160, 163, 167 (2×), 170, 172, 175, 176, 179, 180, 183, 185, 187 (2×), 189, 191, 196, 198, 203, 205 % of control | T/C (dose: 400.0 mg/kg/injection, schedule: Q01DX001 (ip), vehicle: Klucel (hydroxypropylcellulose) (HPC), evaluated on day 35): 159 % of control | survivor count (dose: 400.0 mg/kg/injection, schedule: Q01DX001 (ip), vehicle: Klucel (hydroxypropylcellulose) (HPC)): 5 of 6, 3 of 3, 6 of 6 | T/C [5]: 226 % of control | survivor count [5]: 1 of 3, 2 of 6, 3 of 6, 2 of 3, 4 of 6 (2×), 5 of 6, 3 of 3, 6 of 6 | T/C [6]: 92 % of control [5 of 6 alive] | survivor count [6]: 0 of 3, 1 of 3, 2 of 6, 3 of 6, 2 of 3, 4 of 6, 5 of 6 (2×), 3 of 3, 6 of 6 | T/C (dose: 400.0 mg/kg/injection, schedule: Q04DX002 (ip), vehicle: Klucel (hydroxypropylcellulose) (HPC)): 90, 114 [5 of 6 alive], 138, 157, 166, 166 [5 of 6 alive], 169, 171, 190 (2×), 191, 193, 195, 197, 203, 206, 206 [2 of 2 alive], 208, 211, 213, 215, 217, 218, 220, 223 (2×), 228, 230, 233, 239, 240 (2×), 243, 253, 265 % of control | T/C (dose: 400.0 mg/kg/injection, schedule: Q04DX003 (ip), vehicle: Klucel (hydroxypropylcellulose) (HPC), evaluated on day 30): 118, 121, 123 [2 of 3 alive], 128, 139, 170, 171, 178, 182, 183, 185, 189, 193, 197 (3×), 200, 201, 206, 210, 216, 217, 229, 231, 236 (2×), 237, 247, 251, 252, 253, 254, 257, 265, 275 % of control | T/C (dose: 400.0 mg/kg/injection, schedule: Q04DX003 (ip), vehicle: Klucel (hydroxypropylcellulose) (HPC), evaluated on day 35): 255 % of control
